{"source": "patent US20210353613A1", "about": "“TREATMENT OF NEUROLOGICAL DISEASE” (Aclipse One Inc., priority 2018, published 2021)", "key": {"[1]": {"system": "mouse motor neuron (MN) survival", "assay": "Co-culture of patient iAstrocytes with mouse Hb9-GFP motor neurons: MN survival", "type": "cell-based", "conditions": "iAstrocytes from three ALS patients with C9orf72 mutation; mouse MNs", "protocol": "Induced astrocytes from control or ALS patients were used in a co-culture assay to determine their effect on mouse motor neuron (MN) survival. Mouse embryonic stem cell-derived motor neurons expressing green fluorescence protein (GFP) under the control of the HB9 promoter were sorted and added to iAstrocytes from patients and controls. […] The survival of mouse MNs was monitored on Day 1 and 3 with confocal image acquisition.\nThe MN survival on Day 3 was evaluated as a percentage of survived MN cells observed on Day 1."}, "misfolded SOD1": {"system": "misfolded SOD1", "assay": "Misfolded SOD1 immunocytochemistry (B8H10 antibody) in human iAstrocytes", "type": "cell-based", "conditions": "FIGS. 7 and 8 legends; iAstrocytes from controls and C9orf72, SOD1, sporadic ALS patients", "protocol": "The preparation of iAstrocytes has been described in Example 1. At Day 5, the 96 well plate was coated with fibronectin diluted 1:400 in PBS and allowed to set for cell adhesion. iAstrocytes were first washed in an appropriate volume of PBS before incubating for 5 min at 37° C. in lml of accutase. The accutase was neutralized in an appropriate volume of iAstrocyte medium and cells were collected in a 15 ml falcon and centrifuged at 200g for 4 min to form a pellet. The pellet was resuspended in an appropriate volume of medium and the cells were counted using a Burker hemocytometer. The cells were seeded at the desired density and were left for 24 hours to adhere. […]\nAt Day 7, iAstrocytes were fixed in 4% PFA. These were then stained with misfolded SOD1 antibody (B8H10), CD44 to identify cell area and DAPI. Columbus analysis software was used to quantify immunocytochemistry images. In each condition, the number of nuclei was established. In astrocytes stained for misfolded SOD1 protein aggregates, the number, intensity and area of misfolded SOD1 aggregates within the nucleus and surrounding perinuclear area were quantified as well as the percentage of cells positive for misfolded SOD1 accumulation."}}, "note": "Counter-ions that a name gives are not always drawn. For at least one compound, name, drawing or mass did not settle the structure."}
{"smiles": "COC(=O)/C=C/C(=O)O", "note": "[monomethyl fumarate, reference compound]", "values": [{"measurement": "survival of MN cells on Day 3", "setting": "[1]", "result": "significantly improved"}, {"measurement": "SOD1 misfolding in human iAstrocytes", "setting": "misfolded SOD1", "result": "Reduced SOD1 misfolding"}]}
